Data as given in PubChem BioAssay AID504467 (National Center for Advancing Translational Sciences (NCATS), 2011).
Out of some 330,000 compounds screened, about 7,700 (2.3%) were called active. Inconclusive results, whose numbers are uncertain, are shown with a selection of clear calls. Calls come from the whole dose curve; as a rule, active = well fitted inhibition curve with a large enough effect; inconclusive = small, poorly fitted or top-dose-only effect, or effect the other way; inactive = flat fitted curve, though single readings scatter. Potencies of inconclusive entries are doubtful fits and often do not repeat.

Assay: qHTS screen for small molecules that inhibit ELG1-dependent DNA repair in human embryonic kidney (HEK293T) cells expressing luciferase-tagged ELG1; note: nearly all actives have a fitted effect of over 55% in size
Conditions: HEK293T ELG1-luciferase reporter, luminescence, 16 h, DNA damage induced by 5-fluorouridine; series mostly up to 46.1 µM
Outline: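 DMSO vehicle served as the neutral condition. Each well held 2,000 cells given 5-fluorouridine plus compound; after 16 hr at 37 °C/5% CO2, ONE-Glo was added and luciferase measured 30 min later.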
Potency is the fitted concentration of half-maximal effect.

| SMILES | Potency |
| --- | --- |
| Oc1ccc(Cl)cc1C1=NNC(c2cccs2)C1 (configuration not stated) | inconclusive: 29.1 µM [inhibitor, single point] |
| N#CC1=C(C2CC2)CC(c2ccccc2)C(C#N)=C1N (configuration not stated) | inconclusive: 20.6 µM [inhibitor, single point] |
| COc1cccc(-c2nc3ccccc3c(=O)o2)c1 | inconclusive: 29.1 µM [activator, single point] |
| CCN(CC(=O)Nc1ccc(C(=O)Nc2ccc(OC)cc2)cc1)Cc1nc2ccccc2c(=O)[nH]1 | active: 6.51 µM |
| CN(Cc1ccccc1)C(=O)c1cc2cc(F)ccc2[nH]1 | inactive |
| COc1ccccc1C(=O)NCC1(c2ccccc2)CCCC1 | inconclusive: 20.6 µM [inhibitor, single point] |
| N#CC1=C(SCC(=O)NC23CC4CC(CC(C4)C2)C3)NC(=O)C(C#N)C12CCCCC2 (configuration not stated) | active: 13 µM |
| CC(C)c1ccc(Nc2nc(Cl)nc(Cl)n2)cc1 | inactive |
| COc1ccc(C2NC(=S)N3C(c4ccc(OC)cc4)NC(=S)N23)cc1 (configuration not stated) | inconclusive: 20.6 µM [activator, partial curve, poor fit] |
| CC(=O)Nc1ccc(SC[C@H](Cc2ccccc2)N2CC[C@@H](C)CCC2=O)cc1 | inconclusive: 18.3 µM [inhibitor, single point] |
| O=c1c(Cl)c(N2CCN(c3ccc(F)cc3)CC2)cnn1C12CC3CC(CC(C3)C1)C2 | inactive |
| Cc1ccn2c(Nc3ccccc3)c(-c3ccccn3)nc2c1 | inconclusive: 6.51 µM [inhibitor, single point] |
| COCCNC(=O)C1CC2Cn3c(nc4cc(C)c(C)cc43)C2N1C (configuration not stated) | inconclusive: 29.1 µM [activator, single point] |
| O=C(Nc1cc(C(F)(F)F)ccc1N1CCOCC1)c1ccc(F)cc1 | inconclusive: 29.1 µM [inhibitor, single point] |
| COC(=O)CCCCCCCCCC[N+]1(C)CCCCC1 | inactive |
| COc1ccc(/C=N/Nc2ccc(C(=O)O)cc2)cc1OC | inconclusive: 1.3 µM [activator, partial curve] |
| CCOC(=O)c1c(C)[nH]c(C(=O)OCC(=O)Nc2ccc(OC)c(Cl)c2)c1C | inconclusive: 20.6 µM [inhibitor, partial curve, poor fit] |
| Cc1ccc(OCC(=O)NCCCNC(=O)c2ccncc2)cc1C | inactive |
| COC(=O)c1ccc(NC(=O)CN(c2ccc(C)cc2)S(=O)(=O)c2c(C)nn(C)c2C)cc1 | inconclusive: 11.6 µM [inhibitor, partial curve] |
| O=C(CCn1cnc2ccccc21)N/N=C/C=C/c1ccccc1 | inactive |
| CC(C)(C)NC(=O)C(=O)NNC(=O)c1cccc(Br)c1 | inconclusive: 0.058 µM [activator, partial curve, poor fit] |
| Clc1ccccc1-c1nc(-c2ccc(Br)o2)no1 | inconclusive: 4.61 µM [activator, partial curve] |
| Cc1c(C#N)c(N)nc2c3c(sc12)NC(=O)CC3c1ccccc1 (configuration not stated) | inconclusive: 23.1 µM [activator, single point] |
| CCC(=O)NC(=S)Nc1ccc(NC(=O)c2ccc(C)c([N+](=O)[O-])c2)cc1 | inconclusive: 4.61 µM [inhibitor, full curve] |

A second format for 6 compounds above:
SMILES,Potency
O=C(Nc1cc(C(F)(F)F)ccc1N1CCOCC1)c1ccc(F)cc1,"inconclusive: 29.1 µM [inhibitor, single point]"
COC(=O)CCCCCCCCCC[N+]1(C)CCCCC1,inactive
COc1ccc(/C=N/Nc2ccc(C(=O)O)cc2)cc1OC,"inconclusive: 1.3 µM [activator, partial curve]"
CCOC(=O)c1c(C)[nH]c(C(=O)OCC(=O)Nc2ccc(OC)c(Cl)c2)c1C,"inconclusive: 20.6 µM [inhibitor, partial curve, poor fit]"
Cc1ccc(OCC(=O)NCCCNC(=O)c2ccncc2)cc1C,inactive
COC(=O)c1ccc(NC(=O)CN(c2ccc(C)cc2)S(=O)(=O)c2c(C)nn(C)c2C)cc1,"inconclusive: 11.6 µM [inhibitor, partial curve]"

(continued)

| SMILES | Potency |
| --- | --- |
| CN1/C(=C\C(=O)c2cccs2)Sc2ccccc21 | inconclusive: 2.06 µM [activator, full curve] |
| CCC1=C(OC(=O)N(CC)CC)N2C(=O)OC(=NCC3CC3)[C@]2(C)[C@H]2C1=CC[C@H]1C(=O)N(CC)C(=O)[C@H]12 | inconclusive: 5.8 µM [inhibitor, single point] |
| O=C(NC1CCCCCC1)c1cccc(COCC(F)(F)F)c1 | inconclusive: 23.1 µM [activator, partial curve, poor fit] |
| Cc1cnc(NC(=O)CCCc2nc3ccccc3s2)s1 | inconclusive: 25.9 µM [inhibitor, single point] |
| Cc1c(O)c(CN2CCCCC2)cc2c3c(c(=O)oc12)CCC3 | inconclusive: 10.3 µM [activator, partial curve, poor fit] |
| Nc1ccnc(C(F)(F)F)c1C(=O)c1ccccc1 | inconclusive: 5.8 µM [inhibitor, single point] |
| Cc1ccc(C(=O)NC(=S)N2CCN(c3ccccc3F)CC2)cc1 | inactive |
| Cc1ccc(C(=O)N/N=C/c2ccc(-c3ccccc3[N+](=O)[O-])o2)cn1 | inactive |
| O=C(CSC1CCCCC1)Nc1nccs1 | inconclusive: 18.4 µM [activator, single point] |
| O=C(NCCc1ccccc1)c1cc2ccccc2oc1=O | inconclusive: 20.6 µM [activator, partial curve, poor fit] |
| COc1ccc(S(=O)(=O)Nc2cc(Sc3ncn[nH]3)c(O)c3ccccc23)cc1 | active: 23.1 µM |
| Cc1ccc(S(=O)(=O)Nc2nc3ccccc3nc2NCC2CCCO2)cc1 (configuration not stated) | inconclusive: 14.6 µM [activator, partial curve, poor fit] |
| CC(C)Oc1ccc(C(=O)N2CCN(C(=O)c3ccco3)CC2)cc1 | inactive |
| Cc1ccc(S(=O)(=O)N(CC(=O)Nc2ccc(C)cc2C)C(=O)N2CCN(C)CC2)cc1 | inconclusive: 1.46 µM [activator, full curve, poor fit] |
| CCOc1ccc2nc(NC(=O)c3cccnc3)sc2c1 | inconclusive: 2.59 µM [activator, full curve] |
| COc1cccc(-c2nc(SCC(=O)Nc3nc(-c4ccccc4)c(C)s3)[nH]c(=O)c2C#N)c1 | inactive |
| O=C(N/N=C/c1ccccc1[N+](=O)[O-])c1ccc2c(c1)OCCO2 | inconclusive: 0.517 µM [activator, full curve] |
| Cc1ccnc(NC(=O)c2ccc([N+](=O)[O-])s2)c1 | inconclusive: 5.17 µM [activator, partial curve] |
| COc1ccc(NC(=O)N2CCCC(C(=O)NCc3ccccc3F)C2)cc1 (configuration not stated) | inactive |
| CC(=O)Cc1cc(O)c2ccccc2c1OC(=O)c1ccccc1 | inactive |
| Cc1cc(C)nc(NC(=O)CSc2nc3ccccc3s2)n1 | inconclusive: 9.2 µM [activator, partial curve] |
| CCOC(=O)N1CCC(NC(=O)Cn2ncc3c4ccccc4n(C)c3c2=O)CC1 | inconclusive: 18.4 µM [activator, single point] |
| O=C(COC(=O)/C=C/c1cccs1)Nc1nc(-c2ccccc2)cs1 | inconclusive: 20.6 µM [activator, single point] |
| CCOC(=O)C1C(=O)OC(C)(C)C1C(C)C(=O)c1ccc(C)cc1 (configuration not stated) | inactive |

| SMILES | Potency |
| --- | --- |
| CC1=CC(C)(C)NC(=S)N1C(C)c1ccccc1 (configuration not stated) | inactive |
| COc1ccc(/C=C/C(=O)NCC(c2ccc(F)cc2)N2CCOCC2)cc1OC (configuration not stated) | inactive |
| COc1ccccc1CNC(=O)C1CC(c2cccc([N+](=O)[O-])c2)=NO1 (configuration not stated) | inactive |
| Nc1nc(Cl)cc(Nc2ccccc2Cl)n1 | inconclusive: 29.1 µM [activator, single point] |
| CC(=O)N1CCN(c2ccc(NC(=O)c3ccc4c(c3)OCCO4)cc2)CC1 | inactive |
| CC1(C)CC(=O)/C(=C(/O)Cc2ccccc2)C(=NCCc2ccccc2)C1 | inconclusive: 29.1 µM [inhibitor, single point] |
| O=C(C[C@H]1C/C=C\CC[C@H](Cc2ccc(F)cc2)C(=O)OC[C@H]2CCCN2C1=O)N[C@@H](CO)Cc1ccccc1 | inactive |
| COc1ccc(CCNC(=O)CSc2cccc3cccnc23)cc1OC | inactive |
| Cn1c(SCC(=O)N(C2CCCCC2)C2CCCCC2)nnc1-c1cccs1 | inconclusive: 23.1 µM [inhibitor, single point] |
| Oc1ccc(N=Nc2ccc3c(c2)OCO3)c2ccccc12 | inconclusive: 23.1 µM [activator, partial curve] |
| COc1ccc(N2CCN(C(=O)c3cc4c(C)nc5ccccc5c4o3)CC2)cc1 | inconclusive: 23.1 µM [inhibitor, single point] |
| CN(CCNC(=O)C1CCN(c2ncnc3c2nc2n3CCCCC2)CC1)Cc1ccccc1 | inactive |
| CC(=O)N1CCN(Cc2nc3cc(NC(=O)Cn4nc(C)c5ccccc5c4=O)ccc3n2C)CC1 | inconclusive: 25.9 µM [inhibitor, single point] |
| CC1CCCCC1Nc1nc2ccc(Cl)cc2n2cnnc12 (configuration not stated) | inconclusive: 10.3 µM [inhibitor, partial curve] |
| N#Cc1c(-c2ccncc2)cc(-c2ccc(F)cc2)nc1N | inactive |
| CCN(CC)C(=O)[C@H]1C[C@H](CC(=O)NCc2cccc(C(F)(F)F)c2)C(=O)N2CCc3c([nH]c4cc(CCC(=O)N(C)C)ccc34)[C@]12C | inactive |
| Cn1c(=O)c2c(ncn2CCCc2ccccc2)n(C)c1=O | inconclusive: 29.1 µM [inhibitor, single point] |
| CCOC(=O)CSc1nc2ccccc2c(=O)n1CC1CCCC1 | inactive |
| Cc1cc(C)n(-c2ccc3cccc(NS(C)(=O)=O)c3n2)n1 | inactive |
| COc1ccc(S(=O)(=O)N2CCOC23CCN(S(=O)(=O)c2ccc(Cl)cc2)CC3)cc1 | inactive |
| Cc1nnc(NC(=O)Cn2nc(C)c3ccccc3c2=O)s1 | inactive |
| Cc1sc(NC(=O)C2CCCCC2)c(C#N)c1-c1ccccc1 | inconclusive: 9.2 µM [activator, partial curve, poor fit] |
| CCNc1nc(C)c2cc(Br)c(=O)n(CC)c2n1 | inconclusive: 11.2 µM [activator, partial curve, poor fit] |
| Cc1ccc(-n2ncc(C#N)c2/N=C/N2CCCCCC2)cc1 | inconclusive: 32.6 µM [inhibitor, partial curve, poor fit] |
